{"sequences": {"note": "The chains behind the UniProt entries cited, without tags or fusion partners. Residues count along the entry.", "UniProt P09429": "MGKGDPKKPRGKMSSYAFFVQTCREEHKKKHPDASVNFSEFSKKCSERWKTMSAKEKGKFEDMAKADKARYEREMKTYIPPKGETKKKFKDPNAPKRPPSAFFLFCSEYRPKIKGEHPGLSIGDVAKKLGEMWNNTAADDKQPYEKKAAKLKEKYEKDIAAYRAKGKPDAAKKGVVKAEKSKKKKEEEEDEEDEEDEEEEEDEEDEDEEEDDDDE", "UniProt P02769, residues 25-607": "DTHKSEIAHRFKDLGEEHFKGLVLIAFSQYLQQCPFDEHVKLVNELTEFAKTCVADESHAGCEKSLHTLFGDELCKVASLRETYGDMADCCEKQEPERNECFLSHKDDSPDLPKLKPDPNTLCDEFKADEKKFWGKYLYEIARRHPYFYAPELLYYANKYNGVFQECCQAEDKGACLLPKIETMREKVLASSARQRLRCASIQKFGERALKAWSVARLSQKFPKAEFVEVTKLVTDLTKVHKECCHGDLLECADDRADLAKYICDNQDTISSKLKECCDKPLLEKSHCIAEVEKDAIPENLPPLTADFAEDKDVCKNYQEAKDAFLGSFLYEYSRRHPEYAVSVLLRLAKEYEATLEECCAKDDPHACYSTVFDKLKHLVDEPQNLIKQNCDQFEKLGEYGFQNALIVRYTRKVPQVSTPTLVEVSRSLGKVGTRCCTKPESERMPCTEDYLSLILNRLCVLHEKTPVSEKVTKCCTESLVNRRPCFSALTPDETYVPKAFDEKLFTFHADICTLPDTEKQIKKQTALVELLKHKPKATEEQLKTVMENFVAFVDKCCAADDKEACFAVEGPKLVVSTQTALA", "UniProt Q15109, residues 23-342": "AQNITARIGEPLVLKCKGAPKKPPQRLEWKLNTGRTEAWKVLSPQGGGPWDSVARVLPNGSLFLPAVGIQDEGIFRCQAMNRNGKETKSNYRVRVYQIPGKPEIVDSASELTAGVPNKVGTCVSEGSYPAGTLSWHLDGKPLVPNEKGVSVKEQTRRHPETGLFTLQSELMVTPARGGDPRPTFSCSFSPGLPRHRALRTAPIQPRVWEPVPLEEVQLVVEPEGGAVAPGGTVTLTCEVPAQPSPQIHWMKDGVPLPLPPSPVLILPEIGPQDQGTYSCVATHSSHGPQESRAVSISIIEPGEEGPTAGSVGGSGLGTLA"}, "source": "paper PMC8205142", "assay_in_all_cases": "ELISA; r-venestatin, RAGE ligands or BSA (4 ug/mL) coated on wells; RAGE (1 ug/mL) added; bound RAGE detected with anti-RAGE antibodies; both purified", "key": {"[1]": {"target": "T1, human S100A12 (human) (UniProt P80511)", "T1 sequence": "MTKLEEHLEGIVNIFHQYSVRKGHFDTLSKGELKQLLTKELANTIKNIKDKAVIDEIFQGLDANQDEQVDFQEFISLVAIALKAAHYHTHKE"}, "[2]": {"target": "human HMGB1 (high-mobility group box 1 protein) (human) (UniProt P09429)"}, "[3]": {"target": "N^6-(carboxymethyl) lysine-BSA (bovine) (UniProt P02769)"}, "[4]": {"target": "glyceraldehyde-bovine serum albumin (bovine) (UniProt P02769)"}}, "note": "These are yes or no findings as the source states them, for the method shown. Some binding calls cover weakened binding; strength is not graded here."}
{"substance": "recombinant human RAGE (receptor for advanced glycation end products) (from UniProt Q15109 23-342)", "values": [{"measurement": "binding", "setting": "[1]", "value": "binds"}, {"measurement": "binding", "setting": "[2]", "value": "binds"}]}
{"substance": "recombinant human RAGE (receptor for advanced glycation end products) (from UniProt Q15109 23-342) (receptor; N6-(carboxymethyl)lysine; sites not stated; other documents disagree on this pair)", "values": [{"measurement": "binding", "setting": "[3]", "value": "binds"}]}
{"substance": "recombinant human RAGE (receptor for advanced glycation end products) (from UniProt Q15109 23-342) (receptor; glyceraldehyde-modified (advanced glycation end products); sites not stated; other documents disagree on this pair)", "values": [{"measurement": "binding", "setting": "[4]", "value": "binds"}]}
